Laboratory results taken from the supplement of paper PMC8728848.
The list shows a part of the results.

Columns and labels:
Assay in all cases: glycan array binding signal (z-score within array); higher = stronger binding
Conditions in all cases: glycan notation: IUPAC condensed, linker removed
[1] = molecular target: GlcNAc(b1-2)Gal(b1-3)GalNAc
In short: (§1)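 Columns mapping to the same glycan were averaged after glycan names were converted to IUPAC-condensed notation. The data come from 3228 arrays in the Consortium for Functional Glycomics database, limited to those with an available protein sequence. Binding is reported as a within-array Z-score averaged across arrays of one protein sequence and across linkers.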

[2] = molecular target: GlcNAc(b1-2)Man(a1-3)[GlcNAc(b1-2)Man(a1-6)]Man(b1-4)GlcNAc(b1-4)GlcNAc
In short: as §1

[3] = molecular target: GlcNAc(b1-2)Man(a1-3)[GlcNAc(b1-2)Man(a1-6)]Man(b1-4)GlcNAc(b1-4)[Fuc(a1-6)]GlcNAc
In short: as §1

[4] = molecular target: GlcNAc(b1-2)Man(a1-3)[GlcNAc(b1-4)][GlcNAc(b1-2)Man(a1-6)]Man(b1-4)GlcNAc(b1-4)GlcNAc
In short: as §1

[5] = molecular target: GlcNAc(b1-2)Man(a1-3)[GlcNAc(b1-4)][GlcNAc(b1-2)Man(a1-6)]Man(b1-4)GlcNAc(b1-4)[Fuc(a1-6)]GlcNAc
In short: as §1

[6] = molecular target: GlcNAc(b1-2)[GlcNAc(b1-4)]Man(a1-3)[GlcNAc(b1-2)Man(a1-6)]Man(b1-4)GlcNAc(b1-4)GlcNAc
In short: as §1

[7] = molecular target: GlcNAc(b1-2)[GlcNAc(b1-4)]Man(a1-3)[GlcNAc(b1-4)][GlcNAc(b1-2)Man(a1-6)]Man(b1-4)GlcNAc(b1-4)GlcNAc
In short: as §1

[8] = molecular target: GlcNAc(b1-2)[GlcNAc(b1-4)]Man(a1-3)[GlcNAc(b1-4)][GlcNAc(b1-2)[GlcNAc(b1-6)]Man(a1-6)]Man(b1-4)GlcNAc(b1-4)GlcNAc
In short: as §1

[9] = molecular target: GlcNAc(b1-2)[GlcNAc(b1-4)]Man(a1-3)[GlcNAc(b1-4)][GlcNAc(b1-2)[GlcNAc(b1-6)]Man(a1-6)]Man(b1-4)GlcNAc(b1-4)[Fuc(a1-6)]GlcNAc
In short: as §1

[10] = molecular target: GlcNAc(b1-2)[GlcNAc(b1-6)]Man(a1-6)[GlcNAc(b1-2)Man(a1-3)]Man(b1-4)GlcNAc(b1-4)GlcNAc
In short: as §1

[11] = molecular target: GlcNAc(b1-2)[GlcNAc(b1-6)]Man(a1-6)[GlcNAc(b1-2)Man(a1-3)]Man(b1-4)GlcNAc(b1-4)[Fuc(a1-6)]GlcNAc
In short: as §1

[12] = molecular target: GlcNAc(b1-2)[GlcNAc(b1-6)]Man(a1-6)[GlcNAc(b1-4)][GlcNAc(b1-2)Man(a1-3)]Man(b1-4)GlcNAc(b1-4)GlcNAc
In short: as §1

[13] = molecular target: GlcNAc(b1-3)Fuc
In short: as §1

[14] = molecular target: GlcNAc(b1-3)Gal
In short: as §1

[15] = molecular target: GlcNAc(b1-3)Gal(b1-3)GalNAc
In short: as §1

[16] = molecular target: GlcNAc(b1-3)Gal(b1-4)Glc
In short: as §1

[17] = molecular target: GlcNAc(b1-3)Gal(b1-4)GlcNAc
In short: as §1

[18] = molecular target: GlcNAc(b1-3)Gal(b1-4)GlcNAc(b1-2)Man(a1-3)[GlcNAc(b1-3)Gal(b1-4)GlcNAc(b1-2)Man(a1-6)]Man(b1-4)GlcNAc(b1-4)GlcNAc
In short: as §1

[19] = molecular target: GlcNAc(b1-3)Gal(b1-4)GlcNAc(b1-2)Man(a1-3)[GlcNAc(b1-3)Gal(b1-4)GlcNAc(b1-2)Man(a1-6)]Man(b1-4)GlcNAc(b1-4)[Fuc(a1-6)]GlcNAc
In short: as §1

[20] = molecular target: GlcNAc(b1-3)Gal(b1-4)GlcNAc(b1-2)[GlcNAc(b1-3)Gal(b1-4)GlcNAc(b1-6)]Man(a1-6)[GlcNAc(b1-3)Gal(b1-4)GlcNAc(b1-2)Man(a1-3)]Man(b1-4)GlcNAc(b1-4)GlcNAc
In short: as §1

[21] = molecular target: GlcNAc(b1-3)Gal(b1-4)GlcNAc(b1-3)Gal(b1-4)GlcNAc
In short: as §1

[22] = molecular target: GlcNAc(b1-3)Gal(b1-4)GlcNAc(b1-3)Gal(b1-4)GlcNAc(b1-2)Man(a1-3)[GlcNAc(b1-3)Gal(b1-4)GlcNAc(b1-3)Gal(b1-4)GlcNAc(b1-2)Man(a1-6)]Man(b1-4)GlcNAc(b1-4)GlcNAc
In short: as §1

[23] = molecular target: GlcNAc(b1-3)Gal(b1-4)GlcNAc(b1-3)Gal(b1-4)GlcNAc(b1-2)Man(a1-3)[GlcNAc(b1-3)Gal(b1-4)GlcNAc(b1-3)Gal(b1-4)GlcNAc(b1-2)Man(a1-6)]Man(b1-4)GlcNAc(b1-4)[Fuc(a1-6)]GlcNAc
In short: as §1

[24] = molecular target: GlcNAc(b1-3)Gal(b1-4)GlcNAc(b1-3)Gal(b1-4)GlcNAc(b1-2)[GlcNAc(b1-3)Gal(b1-4)GlcNAc(b1-3)Gal(b1-4)GlcNAc(b1-6)]Man(a1-6)[GlcNAc(b1-3)Gal(b1-4)GlcNAc(b1-3)Gal(b1-4)GlcNAc(b1-2)Man(a1-3)]Man(b1-4)GlcNAc(b1-4)[Fuc(a1-6)]GlcNAc
In short: as §1

[25] = molecular target: GlcNAc(b1-3)Gal(b1-4)GlcNAc(b1-3)Gal(b1-4)GlcNAc(b1-3)Gal(b1-4)GlcNAc(b1-2)Man(a1-3)[GlcNAc(b1-3)Gal(b1-4)GlcNAc(b1-3)Gal(b1-4)GlcNAc(b1-3)Gal(b1-4)GlcNAc(b1-2)Man(a1-6)]Man(b1-4)GlcNAc(b1-4)GlcNAc
In short: as §1

[26] = molecular target: GlcNAc(b1-3)Gal(b1-4)GlcNAc(b1-3)Gal(b1-4)GlcNAc(b1-3)Gal(b1-4)GlcNAc(b1-2)Man(a1-3)[GlcNAc(b1-3)Gal(b1-4)GlcNAc(b1-3)Gal(b1-4)GlcNAc(b1-3)Gal(b1-4)GlcNAc(b1-2)Man(a1-6)]Man(b1-4)GlcNAc(b1-4)[Fuc(a1-6)]GlcNAc
In short: as §1

[27] = molecular target: GlcNAc(b1-3)Gal(b1-4)GlcNAc(b1-3)Gal(b1-4)GlcNAc(b1-3)Gal(b1-4)GlcNAc(b1-2)[GlcNAc(b1-3)Gal(b1-4)GlcNAc(b1-3)Gal(b1-4)GlcNAc(b1-3)Gal(b1-4)GlcNAc(b1-6)]Man(a1-6)[GlcNAc(b1-3)Gal(b1-4)GlcNAc(b1-3)Gal(b1-4)GlcNAc(b1-3)Gal(b1-4)GlcNAc(b1-2)Man(a1-3)]Man(b1-4)GlcNAc(b1-4)[Fuc(a1-6)]GlcNAc
In short: as §1

[28] = molecular target: GlcNAc(b1-3)Gal(b1-4)GlcNAc(b1-3)Gal(b1-4)GlcNAc(b1-3)Gal(b1-4)GlcNAc(b1-3)Gal(b1-4)GlcNAc(b1-2)Man(a1-3)[GlcNAc(b1-3)Gal(b1-4)GlcNAc(b1-3)Gal(b1-4)GlcNAc(b1-3)Gal(b1-4)GlcNAc(b1-3)Gal(b1-4)GlcNAc(b1-2)Man(a1-6)]Man(b1-4)GlcNAc(b1-4)GlcNAc
In short: as §1

[29] = molecular target: GlcNAc(b1-3)Gal(b1-4)GlcNAc(b1-3)Gal(b1-4)GlcNAc(b1-3)Gal(b1-4)GlcNAc(b1-3)Gal(b1-4)GlcNAc(b1-2)Man(a1-3)[GlcNAc(b1-3)Gal(b1-4)GlcNAc(b1-3)Gal(b1-4)GlcNAc(b1-3)Gal(b1-4)GlcNAc(b1-3)Gal(b1-4)GlcNAc(b1-2)Man(a1-6)]Man(b1-4)GlcNAc(b1-4)[Fuc(a1-6)]GlcNAc
In short: as §1

[30] = molecular target: GlcNAc(b1-3)Gal(b1-4)GlcNAc(b1-3)Gal(b1-4)GlcNAc(b1-3)Gal(b1-4)GlcNAc(b1-3)Gal(b1-4)GlcNAc(b1-2)[GlcNAc(b1-3)Gal(b1-4)GlcNAc(b1-3)Gal(b1-4)GlcNAc(b1-3)Gal(b1-4)GlcNAc(b1-3)Gal(b1-4)GlcNAc(b1-6)]Man(a1-6)[GlcNAc(b1-3)Gal(b1-4)GlcNAc(b1-3)Gal(b1-4)GlcNAc(b1-3)Gal(b1-4)GlcNAc(b1-3)Gal(b1-4)GlcNAc(b1-2)Man(a1-3)]Man(b1-4)GlcNAc(b1-4)[Fuc(a1-6)]GlcNAc
In short: as §1

[31] = molecular target: GlcNAc(b1-3)Gal(b1-4)GlcNAc(b1-3)Gal(b1-4)GlcNAc(b1-3)GalNAc
In short: as §1

[32] = molecular target: GlcNAc(b1-3)Gal(b1-4)GlcNAc(b1-3)GalNAc
In short: as §1

[33] = molecular target: GlcNAc(b1-3)Gal(b1-4)GlcNAc(b1-3)[GlcNAc(b1-3)Gal(b1-4)GlcNAc(b1-3)]GalNAc
In short: as §1

[34] = molecular target: GlcNAc(b1-3)Gal(b1-4)GlcNAc(b1-6)[Gal(b1-3)]GalNAc
In short: as §1

[35] = molecular target: GlcNAc(b1-3)Gal(b1-4)GlcNAc(b1-6)[GlcNAc(b1-3)Gal(b1-3)]GalNAc
In short: as §1

[36] = molecular target: GlcNAc(b1-3)Gal(b1-4)GlcNAc(b1-6)[GlcNAc(b1-3)]Gal(b1-4)GlcNAc
In short: as §1

[37] = molecular target: GlcNAc(b1-3)GalNAc
In short: as §1

[38] = molecular target: GlcNAc(b1-3)Man
In short: as §1

[39] = molecular target: GlcNAc(b1-3)[GlcNAc(b1-4)][GlcNAc(b1-6)]GlcNAc
In short: as §1

[40] = molecular target: GlcNAc(b1-3)[GlcNAc(b1-6)]Gal(b1-4)GlcNAc
In short: as §1

[41] = molecular target: GlcNAc(b1-3)[GlcNAc(b1-6)]GalNAc
In short: as §1

[42] = molecular target: GlcNAc(b1-4)Gal(b1-4)GlcNAc
In short: as §1

[43] = molecular target: GlcNAc(b1-4)GlcNAc
In short: as §1

[44] = molecular target: GlcNAc(b1-4)GlcNAc(b1-4)GlcNAc
In short: as §1

[45] = molecular target: GlcNAc(b1-4)GlcNAc(b1-4)GlcNAc(b1-4)GlcNAc(b1-4)GlcNAc
In short: as §1

B1: Pwp7 (Candida glabrata) (protein)
chain: MGSSHHHHHHSSGLVPRGSHMASKNPVDFPNLCQYPNLDGAVAGFDTEIYNADPSILINFSLWPILQFPKEWHKTIGRAITTQTNFKLPASDTTLFGVSIPTQNILIEFRGYFIPPKSGTYTFALYLTDDGSAMFLGNDAAFPCGNITSWSNPTNDQVSVSDYDPKKKTLTVYMVAGVAYPLRIAYYNREKGGSLTASFVDPDGLTHSDWNGYIWTLPSCDNCKYS
For B1, the “glycan array binding signal (z-score)” value [1] was -0.716, the “glycan array binding signal (z-score)” value [2] was 0.107 and the “glycan array binding signal (z-score)” value [3] was 0.212. The “glycan array binding signal (z-score)” value [4] was 1.21, the “glycan array binding signal (z-score)” value [5] was -0.002 and the “glycan array binding signal (z-score)” value [6] was -0.131. The “glycan array binding signal (z-score)” value [7] was -0.478, the “glycan array binding signal (z-score)” value [8] was 0.072 and the “glycan array binding signal (z-score)” value [9] was -0.029. For the same binder, the “glycan array binding signal (z-score)” value [10] was 1.35, the “glycan array binding signal (z-score)” value [11] was 0.402 and the “glycan array binding signal (z-score)” value [12] was 0.494. For the same binder, the “glycan array binding signal (z-score)” value [13] was -1.03, the “glycan array binding signal (z-score)” value [14] was -0.803 and the “glycan array binding signal (z-score)” value [15] was 1.02. The “glycan array binding signal (z-score)” value [16] was -1.1, the “glycan array binding signal (z-score)” value [17] was -0.755 and the “glycan array binding signal (z-score)” value [18] was 1.01. The “glycan array binding signal (z-score)” value [19] was 0.927, the “glycan array binding signal (z-score)” value [20] was 1.17 and the “glycan array binding signal (z-score)” value [21] was -0.296. For the same binder, the “glycan array binding signal (z-score)” value [22] was 1.87, the “glycan array binding signal (z-score)” value [23] was 1.88 and the “glycan array binding signal (z-score)” value [24] was 1.79. For the same binder, the “glycan array binding signal (z-score)” value [25] was 0.478, the “glycan array binding signal (z-score)” value [26] was 1.59 and the “glycan array binding signal (z-score)” value [27] was 1.85. The “glycan array binding signal (z-score)” value [28] was 1.66, the “glycan array binding signal (z-score)” value [29] was 2.91 and the “glycan array binding signal (z-score)” value [30] was 1.62. The “glycan array binding signal (z-score)” value [31] was 0.128, the “glycan array binding signal (z-score)” value [32] was 2.79 and the “glycan array binding signal (z-score)” value [33] was 0.792. The “glycan array binding signal (z-score)” value [34] was 1.47, the “glycan array binding signal (z-score)” value [35] was 1.75 and the “glycan array binding signal (z-score)” value [36] was 0.338. For the same binder, the “glycan array binding signal (z-score)” value [37] was -0.079, the “glycan array binding signal (z-score)” value [38] was -0.272 and the “glycan array binding signal (z-score)” value [39] was -1.58. For the same binder, the “glycan array binding signal (z-score)” value [40] was -0.977, the “glycan array binding signal (z-score)” value [41] was -0.667 and the “glycan array binding signal (z-score)” value [42] was -1.67. The “glycan array binding signal (z-score)” value [43] was -1.22, the “glycan array binding signal (z-score)” value [44] was -1.2 and the “glycan array binding signal (z-score)” value [45] was 0.649.
